In paper PMC10987540, “Biogenesis of Rab14-positive endosome buds at Golgi–endosome contacts by the RhoBTB3–SHIP164–Vps26B complex” (Cell Discovery, 2024):
These are yes or no findings as the source states them, for the method shown. For some of these results: Binding seen in cells or lysates may run through a third protein. Some entries that bind do so weakly or less than the wild type. One block for each substance: values may come before it.

By UniProt entry, the sequences of proteins in these tests, tags left out. Where a name states a change or a piece, a line headed by the entry shows the natural chain unless it says otherwise. Residues count along the entry.
UniProt O94955: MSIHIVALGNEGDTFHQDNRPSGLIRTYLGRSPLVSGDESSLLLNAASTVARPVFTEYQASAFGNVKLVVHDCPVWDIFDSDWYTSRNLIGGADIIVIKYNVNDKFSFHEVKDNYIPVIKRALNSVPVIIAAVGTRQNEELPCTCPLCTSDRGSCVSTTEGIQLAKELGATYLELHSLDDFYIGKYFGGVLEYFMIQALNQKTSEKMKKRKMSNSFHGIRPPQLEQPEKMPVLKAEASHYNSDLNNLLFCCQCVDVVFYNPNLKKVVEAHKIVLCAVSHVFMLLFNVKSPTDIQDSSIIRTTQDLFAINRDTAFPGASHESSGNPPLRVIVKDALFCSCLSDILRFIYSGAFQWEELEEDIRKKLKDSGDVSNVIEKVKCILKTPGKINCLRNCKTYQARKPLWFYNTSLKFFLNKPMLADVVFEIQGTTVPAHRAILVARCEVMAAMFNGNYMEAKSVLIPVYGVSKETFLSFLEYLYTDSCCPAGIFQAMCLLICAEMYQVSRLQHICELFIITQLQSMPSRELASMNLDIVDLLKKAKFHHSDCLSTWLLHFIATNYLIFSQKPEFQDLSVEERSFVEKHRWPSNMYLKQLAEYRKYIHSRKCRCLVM
UniProt A0JNW5: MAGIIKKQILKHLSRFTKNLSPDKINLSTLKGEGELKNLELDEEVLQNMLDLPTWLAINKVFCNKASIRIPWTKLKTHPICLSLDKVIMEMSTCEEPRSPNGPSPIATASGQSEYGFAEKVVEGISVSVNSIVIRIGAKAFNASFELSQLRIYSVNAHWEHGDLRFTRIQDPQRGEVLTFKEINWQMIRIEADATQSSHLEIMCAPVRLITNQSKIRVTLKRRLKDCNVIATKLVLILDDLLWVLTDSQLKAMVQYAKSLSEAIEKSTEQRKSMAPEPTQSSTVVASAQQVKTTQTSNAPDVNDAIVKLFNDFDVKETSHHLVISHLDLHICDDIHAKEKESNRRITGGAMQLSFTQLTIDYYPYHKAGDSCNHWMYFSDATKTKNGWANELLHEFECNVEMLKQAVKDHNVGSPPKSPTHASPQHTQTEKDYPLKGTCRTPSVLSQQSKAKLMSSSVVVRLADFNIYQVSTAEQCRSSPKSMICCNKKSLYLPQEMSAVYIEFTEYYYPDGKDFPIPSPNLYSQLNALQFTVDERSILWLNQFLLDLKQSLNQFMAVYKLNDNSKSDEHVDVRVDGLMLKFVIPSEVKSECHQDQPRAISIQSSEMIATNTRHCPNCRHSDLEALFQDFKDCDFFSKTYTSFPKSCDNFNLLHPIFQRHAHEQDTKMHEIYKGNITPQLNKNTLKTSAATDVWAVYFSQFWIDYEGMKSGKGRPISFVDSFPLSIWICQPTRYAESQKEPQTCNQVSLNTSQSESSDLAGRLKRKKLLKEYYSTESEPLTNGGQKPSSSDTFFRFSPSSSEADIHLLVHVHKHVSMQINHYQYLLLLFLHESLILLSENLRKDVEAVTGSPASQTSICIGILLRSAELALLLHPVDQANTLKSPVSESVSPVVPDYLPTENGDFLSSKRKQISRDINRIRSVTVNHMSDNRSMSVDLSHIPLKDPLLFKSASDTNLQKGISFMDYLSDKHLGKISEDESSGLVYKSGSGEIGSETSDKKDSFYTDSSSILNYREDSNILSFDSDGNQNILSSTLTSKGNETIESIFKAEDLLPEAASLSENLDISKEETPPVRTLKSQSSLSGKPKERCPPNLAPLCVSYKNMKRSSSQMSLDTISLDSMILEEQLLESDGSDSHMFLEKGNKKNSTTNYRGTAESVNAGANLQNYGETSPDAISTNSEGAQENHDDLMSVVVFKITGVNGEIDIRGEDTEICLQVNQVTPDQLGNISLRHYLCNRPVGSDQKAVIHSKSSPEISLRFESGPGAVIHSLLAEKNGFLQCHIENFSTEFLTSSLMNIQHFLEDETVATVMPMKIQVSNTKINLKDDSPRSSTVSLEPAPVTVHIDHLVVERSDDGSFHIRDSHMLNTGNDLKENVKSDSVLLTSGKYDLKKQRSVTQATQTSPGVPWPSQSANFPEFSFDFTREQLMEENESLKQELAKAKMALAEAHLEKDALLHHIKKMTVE
GST-SHIP164-Chorein N: residues 1-104 of A0JNW5
GST-SHIP164-CT (residues 890–1464): residues 890-1464 of A0JNW5
UniProt Q4G0F5: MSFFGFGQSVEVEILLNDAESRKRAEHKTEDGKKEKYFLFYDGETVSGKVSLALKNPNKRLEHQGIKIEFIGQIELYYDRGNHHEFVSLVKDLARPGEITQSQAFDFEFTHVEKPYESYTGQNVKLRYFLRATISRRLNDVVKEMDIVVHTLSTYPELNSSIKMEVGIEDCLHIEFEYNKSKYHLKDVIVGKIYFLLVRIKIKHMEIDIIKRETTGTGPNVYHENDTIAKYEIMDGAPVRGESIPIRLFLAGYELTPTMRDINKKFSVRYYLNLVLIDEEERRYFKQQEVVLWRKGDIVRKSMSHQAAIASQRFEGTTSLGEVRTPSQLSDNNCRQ

How the values were obtained:
GFP-RhoBTB3 = GFP-RhoBTB3 (UniProt O94955); test: co-IP; GFP-Trap agarose beads, lysates of transfected HEK293 cells; lysis buffer 50 mM Tris-Cl pH 7.5, 150 mM NaCl, 0.5 mM EDTA, 0.5% Nonidet P40 Substitute; 3 h at 4 °C; immunoblot; for GFP-RhoBTB3 with Vps26B also in SHIP164 KO #9 cells
[1] = molecular target: endogenous SHIP164 (human (endogenous in HEK293)) (UniProt A0JNW5); test: co-IP; endogenous immunoprecipitation: lysate with 1 μg antibody 8 h at 4 °C, protein A/G beads 12 h; IgG as negative control; HEK293 cells
GST-SHIP164-Chorein N = GST-SHIP164-Chorein N (UniProt A0JNW5); test: pull-down; GST pull-down: purified GST protein on GST tag resin, His fusion protein added, 12 h at 4 °C, HNM buffer (20 mM HEPES pH 7.4, 100 mM NaCl, 5 mM MgCl2, 1 mM DTT, 0.2% NP-40); blot with anti-GST or His antibodies; both purified
[2] = molecular target: GST-SHIP164-CT (residues 890–1464) (UniProt A0JNW5); test: as above
[3] = molecular target: endogenous Vps26B (human (endogenous in HEK293)) (UniProt Q4G0F5); test: co-IP; endogenous immunoprecipitation: lysate with 1 μg antibody 8 h at 4 °C, protein A/G beads 12 h; IgG as negative control; HEK293 cells
BFP-RFPnb-RhoBTB3 = BFP-RFPnb-RhoBTB3 (UniProt O94955); test: knock-sideways recruitment (confocal microscopy); one partner fused to an RFP nanobody is sent to mCherry-marked membranes (ACSL3-mCh lipid droplets or mCh-Sec61β ER) in HEK293 cells; recruitment of soluble GFP-SHIP164 scored by Pearson's correlation
Vps26B-RFPnb = Vps26B-RFPnb (UniProt Q4G0F5); test: as above
GFP-SHIP164 = GFP-SHIP164 (UniProt A0JNW5); test: co-IP; GFP-Trap agarose beads, lysates of transfected HEK293 cells; lysis buffer 50 mM Tris-Cl pH 7.5, 150 mM NaCl, 0.5 mM EDTA, 0.5% Nonidet P40 Substitute; 3 h at 4 °C; immunoblot; for GFP-RhoBTB3 with Vps26B also in SHIP164 KO #9 cells

binding (GFP-RhoBTB3): binds
binding [1]: binds
Substance: endogenous Vps26B (from UniProt Q4G0F5 1-336)

binding [1]: binds
Substance: endogenous RhoBTB3 (from UniProt O94955 1-611)

binding (GST-SHIP164-Chorein N): binds
Substance: His-RhoBTB3 (from UniProt O94955 1-611)

binding [2]: binds
Substance: His-Vps26B (from UniProt Q4G0F5 1-336)

binding (GFP-RhoBTB3): binds
binding [3]: binds
Substance: endogenous SHIP164 (from UniProt A0JNW5 1-1464)

binding (BFP-RFPnb-RhoBTB3): binds
binding (Vps26B-RFPnb): binds
Substance: GFP-SHIP164 (from UniProt A0JNW5 1-1464)

binding (GFP-SHIP164): binds
Substance: Halo-RhoBTB3 (from UniProt O94955 1-611)
